According to the supplement of paper PMC12823440, “Inhibitors supercharge kinase turnover through native proteolytic circuits” (Nature, 2025):
Where a name gives a salt, the structure may show the parent alone. The list shows a part of the results. Hit calls seldom repeat between salt and free forms of one compound.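 In K562 cells expressing nanoluciferase-fused kinases, luminescence was recorded at 4 h intervals between 2 and 18 h, normalized as percent of control with DMSO at 100% and a positive control at 0%. A significant (2 sigma) signal drop marks a time point as decreased. The authors' rule for a hit is not shown and takes in more than the number of time points.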

Chains of the proteins cited; added tags and fusions are not shown. Lines headed by an entry give the natural chain unless they say otherwise; changes in a name come on top.
UniProt Q9Y616: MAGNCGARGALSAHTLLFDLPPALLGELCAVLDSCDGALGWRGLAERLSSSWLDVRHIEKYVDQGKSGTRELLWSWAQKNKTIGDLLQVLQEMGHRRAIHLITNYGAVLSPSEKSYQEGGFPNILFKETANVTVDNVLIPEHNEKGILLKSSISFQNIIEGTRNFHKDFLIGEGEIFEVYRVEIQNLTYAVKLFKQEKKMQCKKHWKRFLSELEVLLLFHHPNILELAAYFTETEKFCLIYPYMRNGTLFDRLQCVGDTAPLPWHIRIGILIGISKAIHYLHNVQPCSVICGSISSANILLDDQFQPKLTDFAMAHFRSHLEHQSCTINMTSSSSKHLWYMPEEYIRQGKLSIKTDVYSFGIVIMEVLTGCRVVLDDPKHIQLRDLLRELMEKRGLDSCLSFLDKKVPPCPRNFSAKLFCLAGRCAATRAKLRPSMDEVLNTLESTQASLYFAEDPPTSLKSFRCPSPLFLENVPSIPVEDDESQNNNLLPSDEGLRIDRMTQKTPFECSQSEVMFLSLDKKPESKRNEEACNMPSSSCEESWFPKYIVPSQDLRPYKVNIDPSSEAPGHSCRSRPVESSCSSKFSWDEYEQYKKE
UniProt P23458: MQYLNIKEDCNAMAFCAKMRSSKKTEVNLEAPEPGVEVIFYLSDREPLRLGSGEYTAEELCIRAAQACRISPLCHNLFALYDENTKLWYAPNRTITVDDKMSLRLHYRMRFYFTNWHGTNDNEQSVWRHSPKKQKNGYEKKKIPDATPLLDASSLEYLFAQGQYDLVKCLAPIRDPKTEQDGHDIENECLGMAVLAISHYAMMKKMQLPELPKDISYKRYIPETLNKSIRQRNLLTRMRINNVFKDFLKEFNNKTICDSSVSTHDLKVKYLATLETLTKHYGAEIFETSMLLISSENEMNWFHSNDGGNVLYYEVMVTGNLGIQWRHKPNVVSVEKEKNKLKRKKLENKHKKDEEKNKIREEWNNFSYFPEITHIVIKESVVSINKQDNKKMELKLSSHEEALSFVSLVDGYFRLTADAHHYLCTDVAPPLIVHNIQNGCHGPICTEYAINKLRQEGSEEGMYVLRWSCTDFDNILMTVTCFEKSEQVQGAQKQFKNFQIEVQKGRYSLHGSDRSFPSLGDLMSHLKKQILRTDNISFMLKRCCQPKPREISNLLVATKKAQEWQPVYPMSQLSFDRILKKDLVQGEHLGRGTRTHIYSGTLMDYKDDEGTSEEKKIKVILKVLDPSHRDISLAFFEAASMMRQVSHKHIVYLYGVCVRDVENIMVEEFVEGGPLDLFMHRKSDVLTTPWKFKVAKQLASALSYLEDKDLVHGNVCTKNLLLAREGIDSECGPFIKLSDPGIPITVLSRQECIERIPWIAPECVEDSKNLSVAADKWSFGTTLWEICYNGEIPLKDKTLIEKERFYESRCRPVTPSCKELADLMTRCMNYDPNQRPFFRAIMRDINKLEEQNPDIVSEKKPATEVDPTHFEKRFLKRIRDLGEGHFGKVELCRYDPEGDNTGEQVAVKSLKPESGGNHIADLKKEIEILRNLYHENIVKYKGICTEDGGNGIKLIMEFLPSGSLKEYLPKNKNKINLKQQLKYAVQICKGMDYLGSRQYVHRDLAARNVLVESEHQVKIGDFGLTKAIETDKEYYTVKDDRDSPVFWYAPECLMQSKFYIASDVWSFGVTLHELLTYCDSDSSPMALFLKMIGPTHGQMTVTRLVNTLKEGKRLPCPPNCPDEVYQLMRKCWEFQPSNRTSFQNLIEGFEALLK
UniProt P53667: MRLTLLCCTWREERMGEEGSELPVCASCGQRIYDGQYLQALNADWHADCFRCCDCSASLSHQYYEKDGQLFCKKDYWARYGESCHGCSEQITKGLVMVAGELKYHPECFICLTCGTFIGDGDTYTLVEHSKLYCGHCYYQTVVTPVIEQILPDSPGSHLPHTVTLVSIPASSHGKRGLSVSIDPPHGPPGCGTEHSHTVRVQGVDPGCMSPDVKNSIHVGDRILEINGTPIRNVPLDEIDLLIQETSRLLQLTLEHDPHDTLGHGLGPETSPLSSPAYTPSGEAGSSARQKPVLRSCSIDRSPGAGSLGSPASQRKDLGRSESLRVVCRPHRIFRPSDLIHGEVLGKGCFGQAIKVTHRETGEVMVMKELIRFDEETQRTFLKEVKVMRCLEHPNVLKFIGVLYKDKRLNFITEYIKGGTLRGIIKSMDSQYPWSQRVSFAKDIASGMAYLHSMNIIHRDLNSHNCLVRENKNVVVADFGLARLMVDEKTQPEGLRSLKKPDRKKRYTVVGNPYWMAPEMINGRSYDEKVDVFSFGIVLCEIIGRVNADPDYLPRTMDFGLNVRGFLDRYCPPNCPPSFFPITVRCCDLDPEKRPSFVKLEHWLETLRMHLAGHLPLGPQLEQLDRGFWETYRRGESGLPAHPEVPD
UniProt P53671: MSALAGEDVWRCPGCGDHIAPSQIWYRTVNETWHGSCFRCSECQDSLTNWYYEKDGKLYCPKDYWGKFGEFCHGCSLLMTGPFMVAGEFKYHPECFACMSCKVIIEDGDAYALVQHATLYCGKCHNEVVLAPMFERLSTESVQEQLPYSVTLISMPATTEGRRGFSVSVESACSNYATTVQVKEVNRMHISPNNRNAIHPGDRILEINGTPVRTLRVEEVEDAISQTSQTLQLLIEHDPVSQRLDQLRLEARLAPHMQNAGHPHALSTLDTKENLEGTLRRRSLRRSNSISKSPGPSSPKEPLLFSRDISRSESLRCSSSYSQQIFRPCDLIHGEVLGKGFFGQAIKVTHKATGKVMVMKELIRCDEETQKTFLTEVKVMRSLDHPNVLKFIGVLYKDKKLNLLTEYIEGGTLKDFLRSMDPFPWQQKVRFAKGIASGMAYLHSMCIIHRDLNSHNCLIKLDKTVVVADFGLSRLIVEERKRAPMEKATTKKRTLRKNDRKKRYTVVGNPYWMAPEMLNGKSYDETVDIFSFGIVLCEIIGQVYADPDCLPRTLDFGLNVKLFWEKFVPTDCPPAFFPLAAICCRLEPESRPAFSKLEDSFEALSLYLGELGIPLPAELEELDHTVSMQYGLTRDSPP
UniProt P07948: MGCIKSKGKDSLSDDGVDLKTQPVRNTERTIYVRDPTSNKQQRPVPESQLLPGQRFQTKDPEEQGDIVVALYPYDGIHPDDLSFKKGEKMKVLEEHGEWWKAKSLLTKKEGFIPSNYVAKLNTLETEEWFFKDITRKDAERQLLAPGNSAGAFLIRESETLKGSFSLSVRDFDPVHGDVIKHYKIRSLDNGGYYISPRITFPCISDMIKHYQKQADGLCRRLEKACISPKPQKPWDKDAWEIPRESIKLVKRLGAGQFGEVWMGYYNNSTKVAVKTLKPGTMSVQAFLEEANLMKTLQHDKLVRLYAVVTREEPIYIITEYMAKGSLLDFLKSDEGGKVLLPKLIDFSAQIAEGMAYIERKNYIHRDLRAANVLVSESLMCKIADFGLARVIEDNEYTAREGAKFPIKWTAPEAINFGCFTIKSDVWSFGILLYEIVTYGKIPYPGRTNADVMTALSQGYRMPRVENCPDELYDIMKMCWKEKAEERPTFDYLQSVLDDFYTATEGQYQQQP
UniProt Q12851: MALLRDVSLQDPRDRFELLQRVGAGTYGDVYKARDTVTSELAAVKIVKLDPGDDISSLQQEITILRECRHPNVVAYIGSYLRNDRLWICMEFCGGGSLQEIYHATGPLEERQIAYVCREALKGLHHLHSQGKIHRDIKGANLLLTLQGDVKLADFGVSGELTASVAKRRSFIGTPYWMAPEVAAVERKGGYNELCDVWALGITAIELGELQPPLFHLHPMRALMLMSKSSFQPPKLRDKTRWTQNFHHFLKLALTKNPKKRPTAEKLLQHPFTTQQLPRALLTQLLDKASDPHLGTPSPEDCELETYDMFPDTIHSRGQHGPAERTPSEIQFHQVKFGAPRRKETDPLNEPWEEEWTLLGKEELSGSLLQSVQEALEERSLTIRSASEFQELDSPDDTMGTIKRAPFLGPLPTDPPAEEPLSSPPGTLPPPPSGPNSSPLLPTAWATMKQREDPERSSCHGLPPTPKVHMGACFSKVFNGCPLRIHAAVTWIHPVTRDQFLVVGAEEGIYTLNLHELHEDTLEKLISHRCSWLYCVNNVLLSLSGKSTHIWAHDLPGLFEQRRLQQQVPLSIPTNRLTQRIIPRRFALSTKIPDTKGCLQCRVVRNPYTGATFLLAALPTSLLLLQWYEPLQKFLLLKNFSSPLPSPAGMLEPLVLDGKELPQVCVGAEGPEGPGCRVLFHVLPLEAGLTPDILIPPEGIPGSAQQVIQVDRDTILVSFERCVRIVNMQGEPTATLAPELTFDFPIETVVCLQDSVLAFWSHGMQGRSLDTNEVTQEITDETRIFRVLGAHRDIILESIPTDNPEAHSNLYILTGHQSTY
UniProt Q9BUB5: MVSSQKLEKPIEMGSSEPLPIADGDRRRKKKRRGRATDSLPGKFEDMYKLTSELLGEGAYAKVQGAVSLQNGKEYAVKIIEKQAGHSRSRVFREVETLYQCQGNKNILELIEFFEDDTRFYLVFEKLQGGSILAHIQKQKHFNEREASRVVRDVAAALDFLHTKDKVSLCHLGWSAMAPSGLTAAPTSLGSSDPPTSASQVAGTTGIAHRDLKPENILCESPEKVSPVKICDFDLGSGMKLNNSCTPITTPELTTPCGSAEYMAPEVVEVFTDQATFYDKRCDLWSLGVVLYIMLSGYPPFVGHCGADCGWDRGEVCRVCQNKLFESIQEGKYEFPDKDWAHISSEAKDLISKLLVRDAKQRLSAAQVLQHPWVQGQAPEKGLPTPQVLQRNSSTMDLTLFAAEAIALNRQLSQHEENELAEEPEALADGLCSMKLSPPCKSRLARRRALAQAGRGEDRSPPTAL
UniProt Q16288, whole entry, looked up: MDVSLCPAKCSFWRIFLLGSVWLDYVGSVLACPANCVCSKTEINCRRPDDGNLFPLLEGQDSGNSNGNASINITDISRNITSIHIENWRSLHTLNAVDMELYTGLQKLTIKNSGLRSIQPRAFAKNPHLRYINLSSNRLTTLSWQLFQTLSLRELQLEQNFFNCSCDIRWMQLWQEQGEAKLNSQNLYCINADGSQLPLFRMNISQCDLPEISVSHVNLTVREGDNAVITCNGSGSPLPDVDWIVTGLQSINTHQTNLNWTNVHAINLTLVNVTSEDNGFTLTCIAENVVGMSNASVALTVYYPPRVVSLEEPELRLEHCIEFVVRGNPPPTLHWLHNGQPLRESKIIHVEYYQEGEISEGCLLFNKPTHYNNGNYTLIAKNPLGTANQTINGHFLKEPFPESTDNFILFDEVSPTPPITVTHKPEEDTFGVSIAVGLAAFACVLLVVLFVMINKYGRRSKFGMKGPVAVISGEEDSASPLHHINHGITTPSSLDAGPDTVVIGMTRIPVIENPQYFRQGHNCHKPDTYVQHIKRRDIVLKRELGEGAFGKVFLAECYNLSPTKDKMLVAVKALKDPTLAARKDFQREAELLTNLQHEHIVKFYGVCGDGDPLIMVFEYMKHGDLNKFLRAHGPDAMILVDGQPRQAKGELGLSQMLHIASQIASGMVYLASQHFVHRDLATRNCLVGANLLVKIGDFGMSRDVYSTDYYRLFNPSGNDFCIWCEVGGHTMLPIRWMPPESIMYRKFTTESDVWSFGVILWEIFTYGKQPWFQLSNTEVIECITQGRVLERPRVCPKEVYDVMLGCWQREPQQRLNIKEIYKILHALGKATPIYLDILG
UniProt O96013: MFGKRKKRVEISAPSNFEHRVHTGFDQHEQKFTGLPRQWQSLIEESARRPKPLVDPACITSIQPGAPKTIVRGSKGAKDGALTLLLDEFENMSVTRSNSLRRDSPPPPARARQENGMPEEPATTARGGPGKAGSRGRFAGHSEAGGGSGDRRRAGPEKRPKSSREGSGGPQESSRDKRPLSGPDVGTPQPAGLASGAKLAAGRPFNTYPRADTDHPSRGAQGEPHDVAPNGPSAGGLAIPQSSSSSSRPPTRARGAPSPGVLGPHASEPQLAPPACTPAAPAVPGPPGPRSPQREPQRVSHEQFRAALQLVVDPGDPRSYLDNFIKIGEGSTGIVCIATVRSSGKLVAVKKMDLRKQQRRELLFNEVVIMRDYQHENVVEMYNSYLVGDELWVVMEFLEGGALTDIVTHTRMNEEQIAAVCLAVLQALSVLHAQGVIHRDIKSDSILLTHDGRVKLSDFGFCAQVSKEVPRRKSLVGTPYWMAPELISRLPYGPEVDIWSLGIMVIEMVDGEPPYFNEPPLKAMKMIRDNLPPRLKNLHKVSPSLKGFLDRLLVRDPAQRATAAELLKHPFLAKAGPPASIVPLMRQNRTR
UniProt Q96KB5: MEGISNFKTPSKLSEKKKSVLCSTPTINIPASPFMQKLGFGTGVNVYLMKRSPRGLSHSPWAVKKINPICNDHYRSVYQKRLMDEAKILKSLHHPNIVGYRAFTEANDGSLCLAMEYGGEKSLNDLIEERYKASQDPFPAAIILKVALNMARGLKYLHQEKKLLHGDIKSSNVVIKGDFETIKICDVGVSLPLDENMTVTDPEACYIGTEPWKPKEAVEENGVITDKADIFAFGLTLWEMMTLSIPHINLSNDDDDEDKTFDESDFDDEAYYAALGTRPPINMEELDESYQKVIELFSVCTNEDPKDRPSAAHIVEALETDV

Columns and labels:
Experiment in all cases: kinase-Nluc reporter destabilization hit call (1 = scored as downregulated) (binary); higher = compound decreases kinase abundance
Conditions in all cases: K562; 2-18 h
[1] = target: IRAK3 (UniProt Q9Y616)
[2] = target: JAK1 (UniProt P23458)
[3] = target: LCK (UniProt P06239)
[4] = target: LIMK1 (UniProt P53667)
[5] = target: LIMK2 (UniProt P53671)
[6] = target: LMTK2 (UniProt Q8IWU2)
[7] = target: LYN (UniProt P07948)
[8] = target: MAP2K1 (UniProt Q02750)
[9] = target: MAP2K2 (UniProt P36507)
[10] = target: MAP4K2 (UniProt Q12851)
[11] = target: MAPK1 (UniProt P28482)
[12] = target: MAPK4 (UniProt P31152)
[13] = target: MAPKAPK2 (UniProt P49137)
[14] = target: MKNK1 (UniProt Q9BUB5)
[15] = target: NTRK2 (UniProt Q16620)
[16] = target: NTRK3 (UniProt Q16288)
[17] = target: PAK4 (UniProt O96013)
[18] = target: PBK (UniProt Q96KB5)
[19] = target: PDGFRB (UniProt P09619)
[20] = target: PDK1 (UniProt Q15118)

Measured: kinase-Nluc reporter destabilization hit call

O=c1oc2cc(O)ccc2c2ccccc12 [Urolithin B] (10 µM)
inactive: [1] 0 | [2] 0 | [3] 0 | [4] 0 | [5] 0 | [6] 0 | [7] 0 | [8] 0 | [9] 0 | [10] 0 | [11] 0 | [12] 0 | [13] 0 | [14] 0 | [15] 0 | [16] 0 | [17] 0 | [18] 0 | [19] 0 | [20] 0

Cc1ccc2nc(NC(=O)CSc3nc4c(c(=O)n3-c3ccccc3)SCC4)sc2c1 (2 µM)
inactive: [1] 0 | [2] 0 | [3] 0 | [4] 0 | [5] 0 | [6] 0 | [7] 0 | [8] 0 | [9] 0 | [10] 0 | [11] 0 | [12] 0 | [13] 0 | [14] 0 | [15] 0 | [16] 0 | [17] 0 | [18] 0 | [19] 0 | [20] 0

N#CC(c1ccnc(NCCc2cccnc2)n1)c1nc2ccccc2s1 (stereo not given) (10 µM)
inactive: [1] 0 | [2] 0 | [3] 0 | [4] 0 | [5] 0 | [6] 0 | [7] 0 | [8] 0 | [9] 0 | [10] 0 | [11] 0 | [12] 0 | [13] 0 | [14] 0 | [15] 0 | [16] 0 | [17] 0 | [18] 0 | [19] 0 | [20] 0

O=C(O)CCc1ccc(O)c(O)c1 [Dihydrocaffeic acid] (10 µM)
inactive: [1] 0 | [2] 0 | [3] 0 | [4] 0 | [5] 0 | [6] 0 | [7] 0 | [8] 0 | [9] 0 | [10] 0 | [11] 0 | [12] 0 | [13] 0 | [14] 0 | [15] 0 | [16] 0 | [17] 0 | [18] 0 | [19] 0 | [20] 0

OC[C@H]1O[C@@H](Oc2cc3c(O)cc(O)cc3[o+]c2-c2cc(O)c(O)c(O)c2)[C@H](O)[C@@H](O)[C@@H]1O [Delphinidin 3-glucoside (chloride)] (10 µM)
inactive: [1] 0 | [2] 0 | [3] 0 | [4] 0 | [5] 0 | [6] 0 | [7] 0 | [8] 0 | [9] 0 | [10] 0 | [11] 0 | [12] 0 | [13] 0 | [14] 0 | [15] 0 | [16] 0 | [17] 0 | [18] 0 | [19] 0 | [20] 0

COc1cc2ncn(-c3cc(OCc4ccccc4S(C)(=O)=O)c(C#N)s3)c2cc1OC (10 µM)
inactive: [1] 0 | [2] 0 | [3] 0 | [4] 0 | [5] 0 | [6] 0 | [7] 0 | [8] 0 | [9] 0 | [10] 0 | [11] 0 | [12] 0 | [13] 0 | [14] 0 | [15] 0 | [16] 0 | [17] 0 | [18] 0 | [19] 0 | [20] 0

Cc1ccc(Oc2nc3cc(-c4ccc5c(ccn5C)c4)c(Cl)cc3[nH]2)cc1C(=O)O (10 µM)
inactive: [1] 0 | [2] 0 | [3] 0 | [4] 0 | [5] 0 | [6] 0 | [7] 0 | [8] 0 | [9] 0 | [10] 0 | [11] 0 | [12] 0 | [13] 0 | [14] 0 | [15] 0 | [16] 0 | [17] 0 | [18] 0 | [19] 0 | [20] 0

Filtered by structure: the entries above with nitrogen in an aromatic ring
Cc1ccc2nc(NC(=O)CSc3nc4c(c(=O)n3-c3ccccc3)SCC4)sc2c1 (2 µM)
inactive: [1] 0 | [2] 0 | [3] 0 | [4] 0 | [5] 0 | [6] 0 | [7] 0 | [8] 0 | [9] 0 | [10] 0 | [11] 0 | [12] 0 | [13] 0 | [14] 0 | [15] 0 | [16] 0 | [17] 0 | [18] 0 | [19] 0 | [20] 0

N#CC(c1ccnc(NCCc2cccnc2)n1)c1nc2ccccc2s1 (stereo not given) (10 µM)
inactive: [1] 0 | [2] 0 | [3] 0 | [4] 0 | [5] 0 | [6] 0 | [7] 0 | [8] 0 | [9] 0 | [10] 0 | [11] 0 | [12] 0 | [13] 0 | [14] 0 | [15] 0 | [16] 0 | [17] 0 | [18] 0 | [19] 0 | [20] 0

COc1cc2ncn(-c3cc(OCc4ccccc4S(C)(=O)=O)c(C#N)s3)c2cc1OC (10 µM)
inactive: [1] 0 | [2] 0 | [3] 0 | [4] 0 | [5] 0 | [6] 0 | [7] 0 | [8] 0 | [9] 0 | [10] 0 | [11] 0 | [12] 0 | [13] 0 | [14] 0 | [15] 0 | [16] 0 | [17] 0 | [18] 0 | [19] 0 | [20] 0

Cc1ccc(Oc2nc3cc(-c4ccc5c(ccn5C)c4)c(Cl)cc3[nH]2)cc1C(=O)O (10 µM)
inactive: [1] 0 | [2] 0 | [3] 0 | [4] 0 | [5] 0 | [6] 0 | [7] 0 | [8] 0 | [9] 0 | [10] 0 | [11] 0 | [12] 0 | [13] 0 | [14] 0 | [15] 0 | [16] 0 | [17] 0 | [18] 0 | [19] 0 | [20] 0

The results go on.

CN(CCNc1ccc2ncc(-c3ccc(C(N)=O)cc3)n2n1)C(=O)OC(C)(C)C (10 µM)
inactive: [1] 0 | [2] 0 | [3] 0 | [4] 0 | [5] 0 | [6] 0 | [7] 0 | [8] 0 | [9] 0 | [10] 0 | [11] 0 | [12] 0 | [13] 0 | [14] 0 | [15] 0 | [16] 0 | [17] 0 | [18] 0 | [19] 0 | [20] 0

O=C1Nc2nc(-c3c(O)cccc3OCC3CC3)cc([C@@H]3CCCNC3)c2CO1 [Bay 65-1942 (hydrochloride)] (10 µM)
inactive: [1] 0 | [2] 0 | [3] 0 | [4] 0 | [5] 0 | [6] 0 | [7] 0 | [8] 0 | [9] 0 | [10] 0 | [11] 0 | [12] 0 | [13] 0 | [14] 0 | [15] 0 | [16] 0 | [17] 0 | [18] 0 | [19] 0 | [20] 0

N#Cc1cccc(-c2c[nH]c3ncnc(N4CCOCC4)c23)c1 (10 µM)
inactive: [1] 0 | [2] 0 | [3] 0 | [4] 0 | [5] 0 | [6] 0 | [7] 0 | [8] 0 | [9] 0 | [10] 0 | [11] 0 | [12] 0 | [13] 0 | [14] 0 | [15] 0 | [16] 0 | [17] 0 | [18] 0 | [19] 0 | [20] 0

COCCOc1ccc(-c2cn(-c3ccccc3)c3nc[nH]c(=O)c23)cc1 (10 µM)
inactive: [1] 0 | [2] 0 | [3] 0 | [4] 0 | [5] 0 | [6] 0 | [7] 0 | [8] 0 | [9] 0 | [10] 0 | [11] 0 | [12] 0 | [13] 0 | [14] 0 | [15] 0 | [16] 0 | [17] 0 | [18] 0 | [19] 0 | [20] 0

Cc1cc(Nc2nc(N[C@@H](C)c3ccc(F)cc3)c(C#N)cc2F)n[nH]1 (10 µM)
inactive: [1] 0 | [2] 0 | [3] 0 | [4] 0 | [5] 0 | [6] 0 | [7] 0 | [8] 0 | [9] 0 | [10] 0 | [11] 0 | [12] 0 | [13] 0 | [14] 0 | [15] 0 | [16] 0 | [17] 0 | [18] 0 | [19] 0 | [20] 0

O=C(CNC(=O)c1ccc(-c2ccccc2)cc1)NC1CCCc2ccccc21 (stereo not given) [TAO Kinase inhibitor 1] (10 µM)
inactive: [1] 0 | [2] 0 | [3] 0 | [4] 0 | [5] 0 | [6] 0 | [7] 0 | [8] 0 | [9] 0 | [10] 0 | [11] 0 | [12] 0 | [13] 0 | [14] 0 | [15] 0 | [16] 0 | [17] 0 | [18] 0 | [19] 0 | [20] 0

COc1ccc(Cl)cc1NC(=O)Nc1cc(C)nc2ccccc12 (2.5 µM)
inactive: [1] 0 | [2] 0 | [3] 0 | [4] 0 | [5] 0 | [6] 0 | [7] 0 | [8] 0 | [9] 0 | [10] 0 | [11] 0 | [12] 0 | [13] 0 | [14] 0 | [15] 0 | [16] 0 | [17] 0 | [18] 0 | [19] 0 | [20] 0

O=C(/C=C/c1ccc(O)c(O)c1)OC1CC(OC(=O)/C=C/c2ccc(O)c(O)c2)(C(=O)O)CC(O)C1O (stereo not given) [1,3-Dicaffeoylquinic acid] (10 µM)
inactive: [1] 0 | [2] 0 | [3] 0 | [4] 0 | [5] 0 | [6] 0 | [7] 0 | [8] 0 | [9] 0 | [10] 0 | [11] 0 | [12] 0 | [13] 0 | [14] 0 | [15] 0 | [16] 0 | [17] 0 | [18] 0 | [19] 0 | [20] 0

CC(C)=CC[C@H](O)C1=CC(=O)c2c(O)ccc(O)c2C1=O [(-)-Alkannin] (2.5 µM)
inactive: [1] 0 | [2] 0 | [3] 0 | [4] 0 | [5] 0 | [6] 0 | [7] 0 | [8] 0 | [9] 0 | [10] 0 | [11] 0 | [12] 0 | [13] 0 | [14] 0 | [15] 0 | [16] 0 | [17] 0 | [18] 0 | [19] 0 | [20] 0

O=C(Nc1ccc(F)cc1F)[C@H](NC(=S)Nc1cc(C(F)(F)F)cc(C(F)(F)F)c1)c1ccccc1 (2.5 µM)
inactive: [1] 0 | [2] 0 | [3] 0 | [4] 0 | [5] 0 | [6] 0 | [7] 0 | [8] 0 | [9] 0 | [10] 0 | [11] 0 | [12] 0 | [13] 0 | [14] 0 | [15] 0 | [16] 0 | [17] 0 | [18] 0 | [19] 0 | [20] 0
